In US10669252B2, “Benzazepine derivative, preparation method, pharmaceutical composition and use thereof” (SHANGHAI DE NOVO PHARMATECH CO., LTD., priority 2016, dated 2020):
Some of these results come from one statement about several compounds together.

The compounds below were run against T1, TLR8 (Homo sapiens, UniProt Q9NR97) (assay: TLR8 cell based assay (HEK-BLUE-hTLR8, SEAP reporter linked to NF-κB activation)). Settings: HEK-BLUE-hTLR8 cells; bound stated.
T1 construct: host or cells: HEK293 (HEK-BLUE-hTLR8)
T1 sequence (Q9NR97 27-1041): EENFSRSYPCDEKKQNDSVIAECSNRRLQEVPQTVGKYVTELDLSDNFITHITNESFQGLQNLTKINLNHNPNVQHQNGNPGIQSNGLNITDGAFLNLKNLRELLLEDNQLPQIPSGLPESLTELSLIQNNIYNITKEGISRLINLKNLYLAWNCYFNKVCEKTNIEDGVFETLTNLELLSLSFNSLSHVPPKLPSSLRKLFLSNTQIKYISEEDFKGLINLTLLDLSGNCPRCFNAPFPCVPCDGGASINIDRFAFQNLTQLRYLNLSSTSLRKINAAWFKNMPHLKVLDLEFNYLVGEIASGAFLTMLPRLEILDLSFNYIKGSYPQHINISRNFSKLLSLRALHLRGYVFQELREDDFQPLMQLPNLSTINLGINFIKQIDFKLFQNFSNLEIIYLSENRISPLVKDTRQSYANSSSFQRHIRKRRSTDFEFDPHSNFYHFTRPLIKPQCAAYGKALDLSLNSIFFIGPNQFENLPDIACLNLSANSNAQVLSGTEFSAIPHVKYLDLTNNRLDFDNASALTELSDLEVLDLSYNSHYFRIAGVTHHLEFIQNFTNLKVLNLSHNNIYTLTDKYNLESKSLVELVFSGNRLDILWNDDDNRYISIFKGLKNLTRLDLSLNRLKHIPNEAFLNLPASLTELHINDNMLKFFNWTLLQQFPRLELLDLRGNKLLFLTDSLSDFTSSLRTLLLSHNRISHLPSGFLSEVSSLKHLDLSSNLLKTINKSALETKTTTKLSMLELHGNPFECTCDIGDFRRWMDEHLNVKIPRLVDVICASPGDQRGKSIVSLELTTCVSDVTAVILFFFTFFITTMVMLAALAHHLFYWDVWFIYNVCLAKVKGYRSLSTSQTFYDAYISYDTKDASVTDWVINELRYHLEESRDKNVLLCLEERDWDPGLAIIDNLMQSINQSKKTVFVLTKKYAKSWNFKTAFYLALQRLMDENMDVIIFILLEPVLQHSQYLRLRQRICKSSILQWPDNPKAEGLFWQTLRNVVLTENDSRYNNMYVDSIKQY
Protocol: In this assay, the bioactivity of compound of formula Iw as measured using a cell based assay. The assay was performed in human embryonic kidney cells (HEK293) expressing TLR8 or other TLR family members such as TLR4, TLR7 and TLR9 (for selectivity screens). The activity of specific TLR agonists was assessed using the secretory embryonic alkaline phosphatase (SEAP) reporter gene that is linked to NF-κB activation in response to TLR stimulation. The SEAP activity was measured using the Quanti-Blue substrate (InvivoGen) after TLR agonist treatment.
The detailed experimental method is as follow:
HEK-BLUE-hTLR8 cell line was purchased from InvivoGen. The cells were cultured in Dulbecco's Modified Eagle's Media containing 4.5 g/L […] (Sigma-Aldrich) and 10% FBS. The cells were cultured at 37° C., 95% humidity and 5% CO2.
Test concentrations of the compounds ranged from 0.5 nM to 15 μM with 10 points. A known TLR8 agonist was added as positive control and 1 μl of DMSO was added as negative control.
The cells were prepared as follows: The cells were removed from the incubator and growth medium was discarded. The cells were gently rinsed with pre-warmed 10 ml PBS for a T-150 flask. 12 ml pre-warmed growth medium was added, and the cells were detached by tapping the flask. Cell clumps were dissociated by gently pipetting up and down. The cells were counted. Single cell suspension was prepared at 200,000 cells per ml in growth medium and 200 μl of the cell suspension (40,000 cells per well) were immediately added to each well of the plate. The final DMSO concentration of each well was 0.5%.
The cells were cultured and treated with the compounds at 37° C., 5% CO2 for 24 h.
20 μL of the supernatant of each well were added to 180 μL of QUANTI-Blue, and the plates were incubated at 37° C. for 1.5 hour. Optical density was measured using a spectrophotometer at 650 nm (OD data). Activivation was calculated by using the equation below: Activivation %=(Compound OD mean value−DMSO OD mean value)/(positive control OD mean value−DMSO OD mean value)×100
The data were analyzed using the GraphPad to get EC50 values and fitting dose response curves of the compounds.

EC50, < 10 nM:
CCCN(CCC)C(=O)C1=Cc2ccc(-c3ccc4c(=O)n(CC(=O)NC)ccc4c3)cc2N=C(N)C1 [Compound 1-2-21]
CCCN(CCC)C(=O)C1=Cc2ccc(-c3ccc4c(=O)n(CC(=O)N(C)C)ccc4c3)cc2N=C(N)C1 [Compound 1-2-24]
CCCN(CCC)C(=O)C1=Cc2ccc(-c3ccc4c(=O)n(CC(=O)NCC)ccc4c3)cc2N=C(N)C1 [Compound 1-2-25]
CCCN(CCC)C(=O)C1=Cc2ccc(-c3ccc4c(=O)n(CC(=O)N5CCCC5)ccc4c3)cc2N=C(N)C1 [Compound 1-2-26]
CCCN(CCC)C(=O)C1=Cc2ccc(-c3ccc4c(=O)n(Cc5nnc(C)o5)ccc4c3)cc2N=C(N)C1 [Compound 1-2-30]
CCCN(CCC)C(=O)C1=Cc2ccc(-c3ccc4c(=O)n(Cc5nccn5C)ccc4c3)cc2N=C(N)C1 [Compound 1-2-33]
CCCN(CCC)C(=O)C1=Cc2ccc(-c3ccc4c(=O)n(Cc5cc[nH]n5)ccc4c3)cc2N=C(N)C1 [Compound 1-2-34]
CCCN(CCC)C(=O)C1=Cc2ccc(-c3ccc4c(=O)n(Cc5ccn(C)n5)ccc4c3)cc2N=C(N)C1 [Compound 1-2-35]
CCCN(CCC)C(=O)C1=Cc2ccc(-c3ccc4c(=O)n(Cc5cnccn5)ccc4c3)cc2N=C(N)C1 [Compound 1-2-44]
CCCN(CCC)C(=O)C1=Cc2ccc(-c3ccc4c(=O)n(CC(C)(C)O)ncc4c3)cc2N=C(N)C1 [Compound 1-8-4]
CCCN(CCC)C(=O)C1=Cc2ccc(-c3ccc4c(=O)n(CCNS(C)(=O)=O)ncc4c3)cc2N=C(N)C1 [Compound 1-8-8]
CCCN(CCC)C(=O)C1=Cc2ccc(-c3ccc4c(=O)n(CCS(=O)(=O)CC)ncc4c3)cc2N=C(N)C1 [Compound 1-8-12]
CCCN(CCC)C(=O)C1=Cc2ccc(-c3ccc4c(=O)n(Cc5ncco5)ncc4c3)cc2N=C(N)C1 [Compound 1-8-15]
CCCN(CCC)C(=O)C1=Cc2ccc(-c3ccc4c(=O)n(Cc5ccccn5)ncc4c3)cc2N=C(N)C1 [Compound 1-8-20]
CCCN(CCC)C(=O)C1=Cc2c(F)cc(-c3ccc4c(=O)n(CC(=O)NC)ccc4c3)cc2N=C(N)C1 [Compound 1-10-3]
CCCN(CCC)C(=O)C1=Cc2c(F)cc(-c3ccc4c(=O)n(CC(=O)NC)ncc4c3)cc2N=C(N)C1 [Compound 1-10-6]
CCCN(CCC)C(=O)C1=Cc2c(F)cc(-c3ccc4c(=O)n(CC(=O)NCC)ccc4c3)cc2N=C(N)C1 [Compound 1-10-7]
CCCN(CCC)C(=O)C1=Cc2c(F)cc(-c3ccc4c(=O)n(CC(=O)N(C)C)ccc4c3)cc2N=C(N)C1 [Compound 1-10-9]
